No constants are given. Whether binding was seen depends on the method and setting. Binding seen in cells or lysates may run through a third protein. A yes stands for co-enrichment or nearness to the bait. Other partners may have been found. For some of these results: A no says only that the protein was not detected with the bait. Sequences can lack the tags named with a protein.

Common to all, as to assay: affinity purification with mass spectrometry; GFP-trap agarose beads on nuclear extracts of transgenic plants expressing 35Sp-TRB1 or 35Sp-TRB3 fused to YFP/GFP; 35Sp-EDS1 fusion as background control; extracts treated with DNase I and RNase A; 20 mM Tris-HCl pH 7.4, 150 mM NaCl, 0.1% Triton X-100, 2 mM EDTA, 4°C, 2.5 h; biological triplicates; label-free quantification, ANOVA with HSD, FDR < 0.05

Experiment [1] addresses T1, TELOMERE REPEAT BINDING FACTOR 1 (TRB1) fused to YFP, expressed under the Cauliflower Mosaic Virus 35S promoter (Arabidopsis thaliana) (UniProt Q8VWK4).
T1 sequence: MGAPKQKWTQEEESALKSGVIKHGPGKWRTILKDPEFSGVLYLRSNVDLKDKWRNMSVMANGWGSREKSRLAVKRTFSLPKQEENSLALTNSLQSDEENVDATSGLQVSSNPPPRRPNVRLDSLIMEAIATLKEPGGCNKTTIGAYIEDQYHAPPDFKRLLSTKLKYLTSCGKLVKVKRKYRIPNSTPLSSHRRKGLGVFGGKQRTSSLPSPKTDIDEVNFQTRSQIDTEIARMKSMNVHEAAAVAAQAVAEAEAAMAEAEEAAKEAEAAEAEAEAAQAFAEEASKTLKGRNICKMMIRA

For experiment [2], the target named is T2, TELOMERE REPEAT BINDING FACTOR 3 (TRB3) fused to YFP, expressed under the Cauliflower Mosaic Virus 35S promoter (Arabidopsis thaliana) (UniProt Q9M2X3).
T2 sequence: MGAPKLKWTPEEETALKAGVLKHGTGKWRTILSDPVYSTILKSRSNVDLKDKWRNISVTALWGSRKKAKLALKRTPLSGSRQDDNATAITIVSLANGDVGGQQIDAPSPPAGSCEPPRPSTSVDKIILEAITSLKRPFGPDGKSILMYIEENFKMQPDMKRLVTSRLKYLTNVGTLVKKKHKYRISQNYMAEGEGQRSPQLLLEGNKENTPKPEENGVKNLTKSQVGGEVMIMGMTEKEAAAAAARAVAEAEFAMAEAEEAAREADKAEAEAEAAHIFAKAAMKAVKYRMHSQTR

In experiment [3] the target is T3, TELOMERE REPEAT BINDING FACTOR 1 (TRB1) fused to YFP, expressed under the Cauliflower Mosaic Virus 35S promoter (Arabidopsis thaliana), Q8VWK4.
T3 chain: T1 sequence
The note with it: remark: other sources report otherwise.

Experiment [4] concerns the target T4, TELOMERE REPEAT BINDING FACTOR 3 (TRB3) fused to YFP, expressed under the Cauliflower Mosaic Virus 35S promoter (Arabidopsis thaliana), Q9M2X3.
T4 chain: T2 sequence
The following applies: remark: other sources report otherwise.

B1: EMBRYONIC FLOWER 1 (EMF1) (protein, UniProt Q9LYD9 1-1096)
chain: MGSSIKINSISIDLAGAANEIDMVKCDHFSMRGFVAETRERDLRKCWPFSEESVSLVDQQSYTLPTLSVPKFRWWHCMSCIKDIDAHGPKDCGLHSNSKAIGNSSVIESKSKFNSLTIIDHEKEKKTDIADNAIEEKVGVNCENDDQTATTFLKKARGRPMGASNVRSKSRKLVSPEQVGNNRSKEKLNKPSMDISSWKEKQNVDQAVTTFGSSEIAGVVEDTPPKATKNHKGIRGLMECDNGSSESINLAMSGLQRRKSRKVRLLSELLGNTKTSGGSNIRKEESALKKESVRGRKRKLLPENNYVSRILSTMGATSENASKSCDSDQGNSESTDSGFDRTPFKGKQRNRRFQVVDEFVPSLPCETSQEGIKEHDADPSKRSTPAHSLFTGNDSVPCPPGTQRTERKLSLPKKKTKKPVIDNGKSTVISFSNGIDGSQVNSHTGPSMNTVSQTRDLLNGKRVGGLFDNRLASDGYFRKYLSQVNDKPITSLHLQDNDYVRSRDAEPNCLRDFSSSSKSSSGGWLRTGVDIVDFRNNNHNTNRSSFSNLKLRYPPSSTEVADLSRVLQKDASGADRKGKTVMVQEHHGAPRSQSHDRKETTTEEQNNDDIPMEIVELMAKNQYERCLPDKEEDVSNKQPSQETAHKSKNALLIDLNETYDNGISLEDNNTSRPPKPCSSNARREEHFPMGRQQNSHDFFPISQPYVPSPFGIFPPTQENRASSIRFSGHNCQWLGNLPTVGNQNPSPSSFRVLRACDTCQSVPNQYREASHPIWPSSMIPPQSQYKPVSLNINQSTNPGTLSQASNNENTWNLNFVAANGKQKCGPNPEFSFGCKHAAGVSSSSSRPIDNFSSESSIPALHLLSLLDPRLRSTTPADQHGNTKFTKRHFPPANQSKEFIELQTGDSSKSAYSTKQIPFDLYSKRFTQEPSRKSFPITPPIGTSSLSFQNASWSPHHQEKKTKRKDTFAPVYNTHEKPVFASSNDQAKFQLLGASNSMMLPLKFHMTDKEKKQKRKAESCNNNASAGPVKNSSGPIVCSVNRNPADFTIPEPGNVYMLTGEHLKVRKRTTFKKKPAVCKQDAMKQTKKPVCPPTQNA
Regarding B1, the binding result in experiment [1] is listed as “no binding”.

B2: VIVIPAROUS1/ABI3-LIKE1;VP1/ABI3-LIKE 1 (VAL1) (protein, UniProt Q8W4L5 1-790)
chain: MFEVKMGSKMCMNASCGTTSTVEWKKGWPLRSGLLADLCYRCGSAYESSLFCEQFHKDQSGWRECYLCSKRLHCGCIASKVTIELMDYGGVGCSTCACCHQLNLNTRGENPGVFSRLPMKTLADRQHVNGESGGRNEGDLFSQPLVMGGDKREEFMPHRGFGKLMSPESTTTGHRLDAAGEMHESSPLQPSLNMGLAVNPFSPSFATEAVEGMKHISPSQSNMVHCSASNILQKPSRPAISTPPVASKSAQARIGRPPVEGRGRGHLLPRYWPKYTDKEVQQISGNLNLNIVPLFEKTLSASDAGRIGRLVLPKACAEAYFPPISQSEGIPLKIQDVRGREWTFQFRYWPNNNSRMYVLEGVTPCIQSMMLQAGDTVTFSRVDPGGKLIMGSRKAANAGDMQGCGLTNGTSTEDTSSSGVTENPPSINGSSCISLIPKELNGMPENLNSETNGGRIGDDPTRVKEKKRTRTIGAKNKRLLLHSEESMELRLTWEEAQDLLRPSPSVKPTIVVIEEQEIEEYDEPPVFGKRTIVTTKPSGEQERWATCDDCSKWRRLPVDALLSFKWTCIDNVWDVSRCSCSAPEESLKELENVLKVGREHKKRRTGESQAAKSQQEPCGLDALASAAVLGDTIGEPEVATTTRHPRHRAGCSCIVCIQPPSGKGRHKPTCGCTVCSTVKRRFKTLMMRRKKKQLERDVTAAEDKKKKDMELAESDKSKEEKEVNTARIDLNSDPYNKEDVEAVAVEKEESRKRAIGQCSGVVAQDASDVLGVTELEGEGKNVREEPRVSS
Regarding B2, the binding result in experiment [2] and in experiment [1] was “binds” each time.

B3: JUMONJI 14 (JMJ14), H3K4me3 de-methylase, Q8GUI6 1-954 (protein)
chain: MDQLASLAESVAMEEDSEKQSIKGESSLEPDSTPSSPKITARWNPSEACRPLVDDAPIFYPTNEDFDDPLGYIEKLRSKAESYGICRIVPPVAWRPPCPLKEKKIWENSKFPTRIQFIDLLQNREPIKKSTKTKKRKRRRISKIGYTRRKRDSGCDTASSGSSDSEGKFGFQTGPDFTLEEFQKYDEYFKECYFQSEDHPGSKASENKKFKPKVKDLEGEYWRIVEQATDEVEVYYGADLETKKFGSGFPKYKPGYPISEADQYSQCGWNLNNLSRLPGSVLAFESCDISGVIVPWLYVGMCFSTFCWHVEDHHLYSMNYLHTGDPKVWYGIPGNHAESFENVMKKRLPDLFEEQPDLLHQLVTQLSPRILKEEGVPVYRAVQRSGEFILTFPKAYHSGFNCGFNCAEAVNVAPVDWLVHGQNAVEGYSKQRRKSSLSHDKLLLGAAMEATYCLWELSLSKKKTPVIARWKRVCSEDGLLTKAVKKRVQMEEERLNHLQDGFSLRKMEGDFDNKRERECFLCFYDLHMSASSCKCSPNRFACLIHAKDLCSCESKDRYILIRHTLDELWALVRALEGDLDAIDLWASKCRDQYPSQHPRAREYAYLKSAPCIKSRGSSKVQQREQNNLQLVSERLQSDLTSNKEVQLKQDGDSDVNRHGHESERNHVHGITDKSAVTDVKLGVGGKFDEKKISVESQNPHSVSDVGCSELAKKVDGCLGGKDQNAATNRLSLSVELLSSGSLVVKKLWCSKQAIYPKGFKSRVKFLSVLDPTNLTNYISEVLDAGLLGPLFRVSVEDYPTENFSNVSAEKCWQMVTQRLKLEIIKKCDQPVSSLTSLQPLESINGLEMFGFLSPHVIKVVEALDPKHQLEEYWNQKAVKLFGAEPIKEGEKDDTEKGGASDPSLDRDTRLLRGLLKKATPEELVMMHGLLCGETRNTELKEELSTLVDKMEISP
B3: the binding result in experiment [3] and in experiment [4] was “binds” in each case.

B4: NAC50, Q9SQX9 1-447 (protein)
chain: MGRESLAVVSSPPSATAPSTAVSATSLAPGFRFHPTDEELVSYYLKRKVLGKPVRFDAIGEVDIYKHEPWDLAVFSKLKTRDQEWYFFSALDKKYGNGARMNRATNKGYWKATGKDREIRRDIQLLGMKKTLVFHSGRAPDGLRTNWVMHEYRLVEYETETNGSLLQDAYVLCRVFHKNNIGPPSGNRYAPFMEEEWADGGGALIPGIDVRVRVEALPQANGNNQMDQEMHSASKDLININELPRDATPMDIEPNQQNHHESAFKPQESNNHSGYEEDEDTLKREHAEEDERPPSLCILNKEAPLPLLQYKRRRQNESNNNSSRNTQDHCSSTITTVDNTTTLISSSAAAATNTAISALLEFSLMGISDKKENQQKEETSPPSPIASPEEKVNDLQKEVHQMSVERETFKLEMMSAEAMISILQSRIDALRQENEELKKKNASGQAS
For B4, the binding result in experiment [4] is reported as “binds”.

B5: NAC50 (protein, UniProt Q9SQX9 1-447)
chain: B4 chain
On to B5, for which the binding result in experiment [1] is given as “binds”.

The record behind these values is paper PMC13132431.
